Test system: Neurotransmitter in Hippocampus of Rat
Assay: CSM test, level of neurotransmitter in hippocampus
Assay type: in vivo
Details: with the dosage of administration
Description: The chronic emotional stress-response model takes as an emotional stress-response resource an uncertain stimulation of drinking by an empty bottle, so as to investigate the influence which the emotional stress of 14 days exerts on the behaviors, and neuroendocrine and immune functions of the rats.
After adaptation for one week, the rats were randomly grouped. Except the normal group, the model groups were fed in individual cages and subjected to the uncertain stimulation of drinking by an empty bottle to establish the anxiety stress models. The specific method is as follows: the training of timely feeding water lasts for 7 days, that is, water was being given to the animals for 10 minutes every day at 9:00-9:10 and 17:00-17:10, and at other times, the water bottles were taken away, without water given. […] The specific method was: the 10 minutes of the empty bottle stimulation was equally divided into 10 periods of time, the above-mentioned three types of behaviors of each rat were recorded in each period of time, wherein it was marked as “1” if the behavior appears, otherwise it was marked as “0”. […]
The following endocrine levels were detected in the test: (1) plasma cortisol concentration, (2) catecholamine level, (3) 5-hydroxytryptamine level.

SMILES: CN1C(=O)CN=C(c2ccccc2)c2cc(Cl)ccc21 [DZP, diazepam]
- change of concentration of the main neurotransmitter in the hippocampus in the brain (in words): do not have a notable influence

— patent US10293016B2, “Use of instant asparagus powder in food, medicine and health food” (Q[…] DEVELOPMENT CO., LTD, priority 2013, dated 2019)
